Measurements: US7026134B2 (priority 2001, dated 2006)

Legend:
[1] = system: IgG fraction of the antiserum raised to immunogen B (hapten B-BSA); type: binding, sheep
[2] = system: IgG fraction of the antiserum raised to immunogen A (hapten A-BSA); type: binding, sheep
Experimental: Aqueous solutions of the immunogens prepared in Examples 7 and 8 were formulated with Freund's Complete Adjuvant (FCA) to form emulsions consisting of 4 mg/ml immunogen A and 2 mg/ml immunogen B in 50% (v/v) FCA. Three sheep were immunized with each emulsion (1° immunizations), 0.25 ml being subcutaneously injected at each of four sites in the flank of each animal. The next immunizations (first boosts) contained 2 mg/ml immunogen A and 1 mg/ml immunogen B. Subsequent immunizations (boosts […]) contained 1 mg/ml of each immunogen. All boosts were emulsified in 50% (v/v) Freund's Incomplete Adjuvant (FIA) and administered to the appropriate sheep in the same manner as the 1° immunizations, at monthly intervals for 1 year. Blood sampling took place 7 to 14 days after each boost. […] The IgG fraction was evaluated by competitive ELISA microtiter plate assay, as described in Example 12 below.
(a) The wells of an enhanced binding 96-well polystyrene microtiter plate were coated with the IgG fraction of the antiserum raised to immunogen A (hapten A-BSA) (Example 7), diluted in 10 mM Tris, pH8.5 (125 μl/well). The appropriate antibody coating dilution was determined using standard ELISA chequerboard techniques. […] The appropriate dilution of conjugate was also determined using standard ELISA chequerboard techniques. […] The absorbance was then measured at 450 nm using a microtiter plate reader.

CN1CC[C@]23c4c5ccc(O)c4O[C@H]2[C@@H](O)C=C[C@H]3[C@H]1C5 [Morphine]
IC50, OP [1]: >2 µg/mL | IC50, OP [2]: >0.5 µg/mL
